We go through eight molecules from publication PMC4996946.

By UniProt entry, the sequences of proteins in these tests, tags left out. Where a name states a change or a piece, a line headed by the entry shows the natural chain unless it says otherwise. Residues count along the entry.
UniProt Q03135: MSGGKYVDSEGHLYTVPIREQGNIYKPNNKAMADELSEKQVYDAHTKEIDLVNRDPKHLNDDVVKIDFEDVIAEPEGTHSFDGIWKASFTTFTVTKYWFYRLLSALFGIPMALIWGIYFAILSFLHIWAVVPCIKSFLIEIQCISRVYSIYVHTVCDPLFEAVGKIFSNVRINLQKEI
GST-Cav1(61–101): residues 61-101 of Q03135
UniProt Q14344: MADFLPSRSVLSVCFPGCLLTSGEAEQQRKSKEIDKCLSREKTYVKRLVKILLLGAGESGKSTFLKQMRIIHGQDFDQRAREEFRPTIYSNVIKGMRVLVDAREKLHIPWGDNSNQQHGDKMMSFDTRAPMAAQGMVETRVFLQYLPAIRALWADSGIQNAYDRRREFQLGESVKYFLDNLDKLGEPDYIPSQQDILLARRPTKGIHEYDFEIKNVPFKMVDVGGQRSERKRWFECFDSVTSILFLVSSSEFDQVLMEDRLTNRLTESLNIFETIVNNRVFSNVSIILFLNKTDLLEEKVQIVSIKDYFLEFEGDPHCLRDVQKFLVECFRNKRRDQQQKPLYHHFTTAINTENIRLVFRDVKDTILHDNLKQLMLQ
UniProt P61586: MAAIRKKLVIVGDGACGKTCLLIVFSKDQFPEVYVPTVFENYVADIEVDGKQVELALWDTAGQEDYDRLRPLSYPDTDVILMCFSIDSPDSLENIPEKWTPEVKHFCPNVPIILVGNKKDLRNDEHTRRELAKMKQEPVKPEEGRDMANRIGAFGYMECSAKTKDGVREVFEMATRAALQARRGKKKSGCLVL

Results are given in words; binding and its absence hold for the method and conditions named. In cells and extracts the contact can be indirect. Some entries that bind do so weakly or less than the wild type. For some of these results: Sequences can lack the tags named with a protein.

In test [1] the target is caveolin-1, endogenous in hPASMCs (human (endogenous in hPASMCs)) (UniProt Q03135). Nature of the test: co-IP; hPASMCs transfected with control siRNA or MURC siRNA; Gα13 associated with Cav1.
Test [2] deals with GST-Gα13 (pGEX-Gα13) (human) (UniProt Q14344). Nature of the test: pull-down; 10 ug GST-Gα13 preloaded with GDP (1 mM) or GTPγS (0.1 mM) at 30 °C for 15 min, linked to glutathione-Sepharose beads; lysates of COS cells transfected with T7-Cav1, MURC-HA and/or p115RhoGEF-FLAG, 4 °C, 2 h; blots with anti-FLAG and anti-GST; only the target purified.
A further test deals with GST-Cav1(FL) (UniProt Q03135). Nature of the test: pull-down; GST-Cav1 on glutathione-Sepharose beads; lysates of COS cells transfected with hGα13 and/or hMURC-HA, incubated with GDP or GTPγS; blots with anti-Gα13 and anti-GST; only the target purified.
The target of another test is GST-Cav1(61–101) (UniProt Q03135). Nature of the test: pull-down; 10 ug GST-Cav1 domain on glutathione-Sepharose beads; lysates of COS cells transfected with hMURC-FLAG or hGα13, 4 °C, 2 h; blots with anti-MURC or anti-Gα13; only the target purified.
Test [3] deals with human caveolin-1 with a T7 tag (pcDNA3.1-T7-hCav1) (human) (UniProt Q03135). Nature of the test: co-IP; COS cells co-transfected; lysis in 50 mM Tris-HCl pH 8.0, 50 mM NaCl, 1% Nonidet P-40, 60 mM octyl glucoside; lysates incubated with antibody-coated magnetic beads (anti-tag antibodies) at 4 °C overnight; blots.
Test [4] deals with T1, human p115RhoGEF with a FLAG tag (pCS2FLAG-hp115RhoGEF) (human) (UniProt Q92888).
T1 sequence: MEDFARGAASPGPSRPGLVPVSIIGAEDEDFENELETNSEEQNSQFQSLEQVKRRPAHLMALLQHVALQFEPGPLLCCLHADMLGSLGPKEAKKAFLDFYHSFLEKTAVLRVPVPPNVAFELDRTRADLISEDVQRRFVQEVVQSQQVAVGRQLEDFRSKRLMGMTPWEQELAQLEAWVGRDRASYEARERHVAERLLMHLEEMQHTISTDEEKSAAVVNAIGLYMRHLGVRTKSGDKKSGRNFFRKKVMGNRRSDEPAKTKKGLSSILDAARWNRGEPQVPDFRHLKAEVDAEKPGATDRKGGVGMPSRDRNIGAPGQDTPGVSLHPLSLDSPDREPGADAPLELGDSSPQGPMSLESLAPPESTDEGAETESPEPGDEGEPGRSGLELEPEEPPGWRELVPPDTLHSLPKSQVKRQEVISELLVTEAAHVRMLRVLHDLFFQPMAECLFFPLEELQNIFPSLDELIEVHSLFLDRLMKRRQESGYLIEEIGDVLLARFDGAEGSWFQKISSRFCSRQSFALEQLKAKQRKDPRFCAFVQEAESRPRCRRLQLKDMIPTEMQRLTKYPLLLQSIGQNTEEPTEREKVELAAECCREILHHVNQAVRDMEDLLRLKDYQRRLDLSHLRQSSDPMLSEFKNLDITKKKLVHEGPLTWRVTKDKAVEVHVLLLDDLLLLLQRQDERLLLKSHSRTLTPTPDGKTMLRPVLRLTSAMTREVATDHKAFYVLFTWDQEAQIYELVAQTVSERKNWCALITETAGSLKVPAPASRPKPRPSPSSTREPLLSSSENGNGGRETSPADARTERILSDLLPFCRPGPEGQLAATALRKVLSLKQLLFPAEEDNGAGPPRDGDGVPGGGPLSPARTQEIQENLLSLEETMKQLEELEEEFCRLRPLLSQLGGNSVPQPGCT
The description is as above.

Test [5] concerns the target T2, human caveolin-3 with a T7 tag (pcDNA3.1-T7-hCav3) (human) (UniProt P56539).
T2 sequence: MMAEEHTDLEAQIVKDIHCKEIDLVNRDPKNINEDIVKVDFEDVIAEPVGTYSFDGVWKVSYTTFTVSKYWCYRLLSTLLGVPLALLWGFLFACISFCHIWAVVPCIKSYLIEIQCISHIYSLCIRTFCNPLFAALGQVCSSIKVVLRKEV
Described as above.

Test [6] deals with T3, human p115RhoGEF fused to the C-terminal fragment of monomeric Kusabira-Green (phmKGC-MN-hp115RhoGEF) (human) (UniProt Q92888).
T3 sequence: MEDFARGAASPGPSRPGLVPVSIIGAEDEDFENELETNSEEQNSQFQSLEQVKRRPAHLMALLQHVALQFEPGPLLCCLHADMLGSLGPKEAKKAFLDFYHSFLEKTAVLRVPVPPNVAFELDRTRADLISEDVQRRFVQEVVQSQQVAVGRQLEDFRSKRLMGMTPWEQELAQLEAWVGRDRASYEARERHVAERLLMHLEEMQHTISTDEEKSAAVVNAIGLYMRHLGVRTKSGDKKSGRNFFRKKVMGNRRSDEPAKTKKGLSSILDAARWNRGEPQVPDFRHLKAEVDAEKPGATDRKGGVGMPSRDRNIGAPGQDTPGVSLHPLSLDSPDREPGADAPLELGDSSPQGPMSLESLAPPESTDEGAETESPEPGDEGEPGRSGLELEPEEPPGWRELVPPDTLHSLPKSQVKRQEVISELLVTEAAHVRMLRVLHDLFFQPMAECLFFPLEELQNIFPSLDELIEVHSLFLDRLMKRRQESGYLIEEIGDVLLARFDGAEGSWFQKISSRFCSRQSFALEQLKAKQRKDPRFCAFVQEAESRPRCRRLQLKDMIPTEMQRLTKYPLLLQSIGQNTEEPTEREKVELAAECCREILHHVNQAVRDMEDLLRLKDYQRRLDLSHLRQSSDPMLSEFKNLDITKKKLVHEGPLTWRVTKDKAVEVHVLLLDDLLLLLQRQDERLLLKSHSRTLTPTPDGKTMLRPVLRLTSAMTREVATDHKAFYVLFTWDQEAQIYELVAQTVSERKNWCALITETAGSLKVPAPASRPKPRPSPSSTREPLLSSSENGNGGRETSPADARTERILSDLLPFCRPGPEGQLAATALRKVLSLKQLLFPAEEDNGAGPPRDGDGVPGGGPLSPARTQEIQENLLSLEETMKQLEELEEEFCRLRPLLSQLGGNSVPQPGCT
Nature of the test: split reporter; BiFC with divided monomeric Kusabira-Green (CoralHue Fluo-chase Kit); pairs of plasmids cotransfected into hPASMCs; fluorescence in living cells after 24 h.

Test [7] has as its target T4, human caveolin-3 fused to the C-terminal fragment of monomeric Kusabira-Green (phmKGC-MN-hCav3) (human) (UniProt P56539).
T4 sequence: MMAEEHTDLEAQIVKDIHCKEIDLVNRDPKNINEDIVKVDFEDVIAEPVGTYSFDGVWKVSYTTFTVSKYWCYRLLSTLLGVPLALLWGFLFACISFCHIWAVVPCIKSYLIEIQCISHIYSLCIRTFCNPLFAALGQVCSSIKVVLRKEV
Described as above.

Test [8] addresses human RhoA with a C-terminal HA epitope (pcDNA3.1-hRhoA-HA) (human) (UniProt P61586). Nature of the test: co-IP; COS cells co-transfected; lysis in 50 mM Tris-HCl pH 8.0, 50 mM NaCl, 1% Nonidet P-40, 60 mM octyl glucoside; lysates incubated with antibody-coated magnetic beads (anti-tag antibodies) at 4 °C overnight; blots.
Test [9] deals with human caveolin-1 fused to the N-terminal fragment of monomeric Kusabira-Green (phmKGN-MC-hCav1) (human) (UniProt Q03135). Nature of the test: split reporter; BiFC with divided monomeric Kusabira-Green (CoralHue Fluo-chase Kit); pairs of plasmids cotransfected into hPASMCs; fluorescence in living cells after 24 h.

On to “Gα13, endogenous in hPASMCs (from UniProt Q14344 1-377)”, for which the binding entry in test [1] is given as “binds”.

For the molecule “human caveolin-1 with a T7 tag (pcDNA3.1-T7-hCav1) (from UniProt Q03135 1-178)”, the binding entry in test [2] is “binds”.

Consider “human Gα13 (pcDNA3.1-hGα13) (from UniProt Q14344 1-377)”, for which the binding entry with GST-Cav1(FL) and with GST-Cav1(61–101) was “binds” in each case.

B1: human MURC/Cavin-4 with a C-terminal HA epitope (pcDNA3.1-hMURC-HA) (protein, UniProt Q5BKX8 1-364)
chain: MEHNGSASNADKIHQNRLSSVTEDEDQDAALTIVTVLDKVASIVDSVQASQKRIEERHREMENAIKSVQIDLLKLSQSHSNTGHIINKLFEKTRKVSAHIKDVKARVEKQQIHVKKVEVKQEEIMKKNKFRVVIFQEKFRCPTSLSVVKDRNLTENQEEDDDDIFDPPVDLSSDEEYYVEESRSARLRKSGKEHIDNIKKAFSKENMQKTRQNLDKKVNRIRTRIVTPERRERLRQSGERLRQSGERLRQSGERFKKSISNAAPSKEAFKMRSLRKGKDRTVAEGEECAREMGVDIIARSESLGPISELYSDELSEPEHEAARPVYPPHEGREIPTPEPLKVTFKSQVKVEDDESLLLDLKHSS
On to B1, for which the binding result (in test [3]; in [4]; in test [5]; in the test with GST-Cav1(FL)) was “binds” throughout.

B2: human MURC fused to the N-terminal fragment of monomeric Kusabira-Green (phmKGN-MC-hMURC) (protein, UniProt Q5BKX8 1-364)
chain: MEHNGSASNADKIHQNRLSSVTEDEDQDAALTIVTVLDKVASIVDSVQASQKRIEERHREMENAIKSVQIDLLKLSQSHSNTGHIINKLFEKTRKVSAHIKDVKARVEKQQIHVKKVEVKQEEIMKKNKFRVVIFQEKFRCPTSLSVVKDRNLTENQEEDDDDIFDPPVDLSSDEEYYVEESRSARLRKSGKEHIDNIKKAFSKENMQKTRQNLDKKVNRIRTRIVTPERRERLRQSGERLRQSGERLRQSGERFKKSISNAAPSKEAFKMRSLRKGKDRTVAEGEECAREMGVDIIARSESLGPISELYSDELSEPEHEAARPVYPPHEGREIPTPEPLKVTFKSQVKVEDDESLLLDLKHSS
Turning to B2, the binding entry in test [6] is listed as “binds”.

B3: human MURC fused to the N-terminal fragment of monomeric Kusabira-Green (phmKGN-MN-hMURC) (protein, UniProt Q5BKX8 1-364)
chain: MEHNGSASNADKIHQNRLSSVTEDEDQDAALTIVTVLDKVASIVDSVQASQKRIEERHREMENAIKSVQIDLLKLSQSHSNTGHIINKLFEKTRKVSAHIKDVKARVEKQQIHVKKVEVKQEEIMKKNKFRVVIFQEKFRCPTSLSVVKDRNLTENQEEDDDDIFDPPVDLSSDEEYYVEESRSARLRKSGKEHIDNIKKAFSKENMQKTRQNLDKKVNRIRTRIVTPERRERLRQSGERLRQSGERLRQSGERFKKSISNAAPSKEAFKMRSLRKGKDRTVAEGEECAREMGVDIIARSESLGPISELYSDELSEPEHEAARPVYPPHEGREIPTPEPLKVTFKSQVKVEDDESLLLDLKHSS
Turning to B3, the binding result in test [7] is on record as “binds”.

B4: human MURC/Cavin-4 with a C-terminal FLAG epitope (pcDNA3.1-hMURC-FLAG) (protein, UniProt Q5BKX8 1-364)
chain: MEHNGSASNADKIHQNRLSSVTEDEDQDAALTIVTVLDKVASIVDSVQASQKRIEERHREMENAIKSVQIDLLKLSQSHSNTGHIINKLFEKTRKVSAHIKDVKARVEKQQIHVKKVEVKQEEIMKKNKFRVVIFQEKFRCPTSLSVVKDRNLTENQEEDDDDIFDPPVDLSSDEEYYVEESRSARLRKSGKEHIDNIKKAFSKENMQKTRQNLDKKVNRIRTRIVTPERRERLRQSGERLRQSGERLRQSGERFKKSISNAAPSKEAFKMRSLRKGKDRTVAEGEECAREMGVDIIARSESLGPISELYSDELSEPEHEAARPVYPPHEGREIPTPEPLKVTFKSQVKVEDDESLLLDLKHSS
For the molecule B4, the binding result (in [8]; in the test with GST-Cav1(61–101)) was “binds” throughout.

B5: human MURC fused to the C-terminal fragment of monomeric Kusabira-Green (phmKGC-MC-hMURC) (protein, UniProt Q5BKX8 1-364)
chain: MEHNGSASNADKIHQNRLSSVTEDEDQDAALTIVTVLDKVASIVDSVQASQKRIEERHREMENAIKSVQIDLLKLSQSHSNTGHIINKLFEKTRKVSAHIKDVKARVEKQQIHVKKVEVKQEEIMKKNKFRVVIFQEKFRCPTSLSVVKDRNLTENQEEDDDDIFDPPVDLSSDEEYYVEESRSARLRKSGKEHIDNIKKAFSKENMQKTRQNLDKKVNRIRTRIVTPERRERLRQSGERLRQSGERLRQSGERFKKSISNAAPSKEAFKMRSLRKGKDRTVAEGEECAREMGVDIIARSESLGPISELYSDELSEPEHEAARPVYPPHEGREIPTPEPLKVTFKSQVKVEDDESLLLDLKHSS
With B5, the binding result in test [9] is “binds”.
